Where “and” joins values, the source holds several entries; their conditions need not be identical. Equal entries are not always repeated. Inconclusive results and toxic doses are left out. The calls were made as follows: active = survival T/C of 150% or more; inactive = T/C below 125% in these data.
Tested on: BDF1 mice, B16 melanoma ip, median survival T/C
Test: NCI In Vivo Anticancer Drug Screen. Data for tumor model B16 Melanoma (intraperitoneal) in B6D2F1 (BDF1) mice
Settings: endpoint: median survival time, schedule: Q01DX009 (ip), higher = longer survival
Method: The antitumor activity of compounds was measured in mice bearing transplantable tumors. Survival or tumor size were measured and the results are expressed as the measurement made in the treated group (T) divided by the measurement made in the vehicle treated control group (C). The tumor model used in this assay is B16 Melanoma (intraperitoneal) in B6D2F1 (BDF1) mice

Measured: T/C

COc1cc2c(c(OC)c1OC)-c1ccc(OC)c(=O)cc1[C@@H](N)CC2
inactive: dose: 0.63 mg/kg/injection, vehicle: Klucel (hydroxypropylcellulose) (HPC) 102 % of control and 115 % of control | dose: 0.63 mg/kg/injection, vehicle: saline 111 % of control | dose: 1.25 mg/kg/injection, vehicle: Klucel (hydroxypropylcellulose) (HPC) 103 % of control | dose: 2.5 mg/kg/injection, vehicle: Klucel (hydroxypropylcellulose) (HPC) 106 % of control and 114 % of control | dose: 5.0 mg/kg/injection, vehicle: Klucel (hydroxypropylcellulose) (HPC) 121 % of control

— PubChem BioAssay AID192 (DTP/NCI, 2004)
